Among the data in patent US12472196B2, “Use of DNMT inhibitor” (priority 2019, dated 2025) are IC50 values, retold here.

What is called IC50 is the concentration at which inhibition is half-maximal.

The test system of test [1] is MYL. The experiment in a line: cells. To be noted: 72 h, read-out: IC50 MYL. The method, then: (§1) The CML cell line (BV173, MYL, Ba/F3 BCR-ABL^WT) and the TKI-resistant CML cell line (MYL-R, Ba/F3 BCR-ABL^T315I) in the Table below were seeded in 96-well plates at 3,000-7,000 cells/100 μL/well in a culture solution (10% FBS and RPMI-1640) and cultured under 5% CO2 gas flow at 37° C. for about 3 hours. Then, 100 μL of each compound diluted with the culture solution to 50-0.05 μM MYL, Ba/F3 BCR-ABL^WT, MYL-R, Ba/F3 BCR-ABL^T315I and 500 nM-0.1 nM BV173 was added to the above 96-well plates and cultured for 24 hours, followed by centrifugation (4° C., 1500 rpm, 5 minutes). The supernatant of the culture solution was discarded. […] After further culturing for 24 hours (72 hours totally) and reaction using CCK-8 reagent (DOJINDO, CK04) according to its attached instruction, the absorption at 450 nm and 620 nm (blank) of each well was determined with a plate reader (Varioskan Flash, Thermo-Fisher Scientific Co. Ltd.). The values of the wells without sample treatment were taken as 100%, and those of the wells treated with the samples were expressed as relative values. The values of IC50 (μm) were calculated (see Table 3-1). In addition, IC50 ratio of MYL-R cell line to MYL cell line and that of Ba/F3 BCR-ABL^T315I cell line to Ba/F3 BCR-ABL^WT cell line were calculated (see Table 3-2).

In test [2] the test system is MYL-R. The experiment in a line: cells. Conditions: 72 h, read-out: IC50 MYL-R. As to the method: as §1, with “3-2). […]” for “3-2).”

In the case of `Cc1ccc(NC(=O)c2ccc(CN3CCN(C)CC3)cc2)cc1Nc1nccc(-c2cccnc2)n1` [Imatinib, reference compound], the IC50 in test [1] stood at 280 nM; in test [2], 2980 nM.
